These are yes or no findings as the source states them, for the method shown. Binding seen in cells or lysates may run through a third protein. Some entries that bind do so weakly or less than the wild type. Tags and fused reporters may be left off the sequences shown.
Experiments:
[1] = molecular target: tubulin β-2 chain (human) (UniProt P68371); assay: GST pull-down from NCI-H630 lysate (HepG2 lysate as control), LC-MS/MS; MASCOT score 84
[2] = molecular target: T1, myosin le (Myosin Ic) (human) (UniProt Q12965); assay: GST pull-down from NCI-H630 lysate (HepG2 lysate as control), LC-MS/MS; MASCOT score 583
T1 sequence (looked up): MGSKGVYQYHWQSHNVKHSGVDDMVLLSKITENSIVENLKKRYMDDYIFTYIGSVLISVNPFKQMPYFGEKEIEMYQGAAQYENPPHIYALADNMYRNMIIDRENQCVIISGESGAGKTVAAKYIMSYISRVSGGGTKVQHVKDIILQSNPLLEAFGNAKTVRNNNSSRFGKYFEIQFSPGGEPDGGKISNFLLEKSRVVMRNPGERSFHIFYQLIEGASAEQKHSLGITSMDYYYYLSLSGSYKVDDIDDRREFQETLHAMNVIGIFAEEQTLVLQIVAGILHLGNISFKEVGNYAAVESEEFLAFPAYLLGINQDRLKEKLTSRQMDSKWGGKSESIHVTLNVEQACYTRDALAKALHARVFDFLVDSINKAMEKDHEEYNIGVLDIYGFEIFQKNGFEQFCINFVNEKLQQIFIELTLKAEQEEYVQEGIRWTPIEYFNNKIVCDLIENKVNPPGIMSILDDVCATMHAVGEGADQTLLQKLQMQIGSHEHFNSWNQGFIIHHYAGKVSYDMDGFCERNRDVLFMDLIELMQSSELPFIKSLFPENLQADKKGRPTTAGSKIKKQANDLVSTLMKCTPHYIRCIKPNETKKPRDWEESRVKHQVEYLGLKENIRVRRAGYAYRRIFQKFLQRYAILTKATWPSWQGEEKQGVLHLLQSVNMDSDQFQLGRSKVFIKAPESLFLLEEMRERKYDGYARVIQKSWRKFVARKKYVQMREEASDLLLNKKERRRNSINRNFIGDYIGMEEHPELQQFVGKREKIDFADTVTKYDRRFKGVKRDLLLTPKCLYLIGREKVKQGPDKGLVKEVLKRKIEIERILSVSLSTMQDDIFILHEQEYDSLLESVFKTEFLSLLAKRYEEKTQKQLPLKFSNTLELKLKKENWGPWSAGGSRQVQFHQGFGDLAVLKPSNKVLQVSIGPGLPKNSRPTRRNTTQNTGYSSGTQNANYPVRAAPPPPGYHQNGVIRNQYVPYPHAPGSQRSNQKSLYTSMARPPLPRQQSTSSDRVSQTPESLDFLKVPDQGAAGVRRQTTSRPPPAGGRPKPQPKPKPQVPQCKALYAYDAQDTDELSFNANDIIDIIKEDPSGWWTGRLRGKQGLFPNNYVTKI

Sequences of proteins named here, by UniProt entry; tags and fusion partners are left off.
UniProt P68371: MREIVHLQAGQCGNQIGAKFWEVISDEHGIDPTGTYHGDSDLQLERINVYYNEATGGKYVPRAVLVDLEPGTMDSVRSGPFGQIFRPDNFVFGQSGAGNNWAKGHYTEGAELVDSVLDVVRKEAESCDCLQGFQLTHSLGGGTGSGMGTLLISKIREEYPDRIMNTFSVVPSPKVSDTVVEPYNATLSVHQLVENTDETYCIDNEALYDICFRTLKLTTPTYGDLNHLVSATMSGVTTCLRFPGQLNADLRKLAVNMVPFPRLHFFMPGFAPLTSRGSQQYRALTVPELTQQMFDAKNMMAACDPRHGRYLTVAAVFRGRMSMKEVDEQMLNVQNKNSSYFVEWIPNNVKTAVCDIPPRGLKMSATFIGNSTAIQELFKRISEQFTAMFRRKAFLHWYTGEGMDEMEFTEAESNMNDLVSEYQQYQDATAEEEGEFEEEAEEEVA
UniProt P68363: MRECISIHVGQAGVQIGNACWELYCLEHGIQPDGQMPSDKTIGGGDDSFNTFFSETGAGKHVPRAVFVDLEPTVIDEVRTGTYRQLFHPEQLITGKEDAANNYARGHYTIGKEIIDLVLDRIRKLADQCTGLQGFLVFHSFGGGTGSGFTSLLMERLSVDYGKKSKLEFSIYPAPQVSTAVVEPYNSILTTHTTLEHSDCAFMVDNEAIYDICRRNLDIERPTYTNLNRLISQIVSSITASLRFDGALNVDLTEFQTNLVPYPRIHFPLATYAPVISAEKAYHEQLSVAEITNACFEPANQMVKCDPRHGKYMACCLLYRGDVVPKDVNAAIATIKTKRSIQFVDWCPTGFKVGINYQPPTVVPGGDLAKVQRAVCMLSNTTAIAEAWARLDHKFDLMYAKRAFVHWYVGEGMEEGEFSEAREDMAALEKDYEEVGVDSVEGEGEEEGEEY

[3] = molecular target: α-tubulin (human) (UniProt P68363); assay: GST pull-down from NCI-H630 lysate (HepG2 lysate as control), LC-MS/MS; MASCOT score 258
[4] = molecular target: actin-related protein 2/3 complex sub 1B (human) (UniProt O15143); assay: GST pull-down from NCI-H630 lysate (HepG2 lysate as control), LC-MS/MS; MASCOT score 193

binding [1]: binds | binding [2]: binds | binding [3]: binds | binding [4]: binds
Binder: CGIYRLRSC (peptide, not shown: a dimerising Fc or GST) […-GST]

— patent EP2703005A1, “Inhibitors of alpha6 Integrin/E-Cadherin Complex” (Università Degli Studi Di Torino, priority 2012, dated 2014)
